How the values were obtained:
MtrB histidine kinase = MtrB histidine kinase (Mycobacterium tuberculosis, UniProt P9WGK9); test: biochemical
PhoR histidine kinase = PhoR histidine kinase (Mycobacterium tuberculosis, UniProt P71815); test: biochemical

Protein sequences, listed by entry. Tags and fused reporters are not part of them. Residues count along the entry.
UniProt P9WGK9, 302-519 limits assumed: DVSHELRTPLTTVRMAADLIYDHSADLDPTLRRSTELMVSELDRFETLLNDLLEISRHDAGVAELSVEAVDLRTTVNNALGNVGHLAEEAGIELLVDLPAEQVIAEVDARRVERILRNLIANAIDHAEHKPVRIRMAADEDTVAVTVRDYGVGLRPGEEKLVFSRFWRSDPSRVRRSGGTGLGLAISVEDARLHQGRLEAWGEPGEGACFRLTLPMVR
UniProt P71815, 181-485 limits assumed: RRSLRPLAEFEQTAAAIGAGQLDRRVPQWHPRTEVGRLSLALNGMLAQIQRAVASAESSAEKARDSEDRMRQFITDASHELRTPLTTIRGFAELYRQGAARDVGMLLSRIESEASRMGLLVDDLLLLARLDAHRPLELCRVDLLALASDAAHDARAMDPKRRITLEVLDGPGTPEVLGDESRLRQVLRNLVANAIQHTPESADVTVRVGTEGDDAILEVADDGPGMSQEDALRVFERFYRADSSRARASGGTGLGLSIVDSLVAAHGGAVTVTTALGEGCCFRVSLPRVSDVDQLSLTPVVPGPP

CC/C(=C(\c1ccccc1)c1ccc(OCCN(C)C)cc1)c1ccccc1 [TAM, tamoxifen]
Kd (MtrB histidine kinase): 0.412 ± 0.083 µM
Kd (PhoR histidine kinase): 0.108 ± 0.044 µM

Source: PMC12889096 (Microbiology Spectrum, 2025)
